Experimental data published in PubChem BioAssay AID493014 (National Center for Advancing Translational Sciences (NCATS), 2011).
Hit rate of the full screen: of about 340,000 compounds, about 170 (0.05%) were called active. The inconclusive results got no clear call from the source; some entries with a clear call stand among them for comparison. Calls come from the whole dose curve; as a rule, active = well fitted inhibition curve with a large enough effect in the signal ratio, with a control signal flat (not every such curve was filed as active); inconclusive = small, poorly fitted or top-dose-only effect, or effect the other way, or a change in a side signal; inactive = flat fitted curve, though single readings scatter; the % refers to the signal ratio. A potency beside an inconclusive call is a rough fit, not a confirmed value.

Test: qHTS Assay to Find Inhibitors of Chronic Active B-Cell Receptor Signaling;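 for activity change, negative = inhibition: plate controls were basal doxycycline-induced cells for no effect and cells given 10 µM MG132 for full effect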
Conditions: ABC-DLBCL IkBa-CBG/CBR reporter, luminescence ratio (green luciferase fused to IkBa over red control in TMD8 lymphoma cells), 4 h; activity change, negative = inhibition: at 46.1 µM (top of the series) unless noted
Method in brief: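 Cell line TMD8 (human ABC DLBCL), stably expressing tet-inducible CBG68-IkBa fusion and CBR; IMDM/0.5% FBS; cpd up to 46 uM; dox induction, 4 h, 37C/5% CO2; dual luminescence; green/red ratio; MG132 control.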
Potency is the fitted concentration of half-maximal effect.

| Compound | activity change, negative = inhibition | Potency |
| --- | --- | --- |
| CN(C)c1ccc(-c2nn3c(-c4cccnc4)nnc3s2)cc1 | inconclusive: 10.4% |  |
| COc1cccc(C(=O)CC(=O)C(=O)Nc2cc(OC)c(OC)c(OC)c2)c1 | inactive: -0.6% |  |
| O=C(O)c1ccc(CNc2ccccc2C(=O)O)cc1 |  | inconclusive: 29.1 µM [falling, single point] |
| Cc1ccc(CNc2nc(-c3cccs3)nc3ccccc23)cc1 | inactive: 3.33% |  |
| N#C/C(=C\c1ccncc1)C(=O)Nc1ccc(C(=O)O)cc1 |  | inconclusive: 22.4 µM [falling, partial curve] |
| Cc1nc(N2N=C3/C(=C/c4ccc(F)cc4)CCCC3C2c2ccc(F)cc2)sc1C(=O)N(C)C (stereo unspecified) | inconclusive: 18.9% |  |
| O=C(CCc1ccc(S(=O)(=O)N2CCOCC2)cc1)OCc1nc2ccccc2s1 | inconclusive: 8.48% |  |
| CCOC(=O)c1ccc(NC(=O)c2ccco2)cc1 | inactive: -3.86% |  |
| CCc1ccc(NC(=O)C2CCCN(S(=O)(=O)c3ccc4c(c3)CC(C)N4C(C)=O)C2)cc1 (stereo unspecified) | inactive: -11% |  |
| CCc1c(C)nc(SCCOc2ccc(OC)cc2)[nH]c1=O |  | inconclusive: 35.5 µM [falling, single point] |
| COc1ccc(NC(=O)CCN2CCCCC2)cc1 | inconclusive: 19.1% |  |
| Cn1c(=O)c(C(=O)Nc2ccccc2S(N)(=O)=O)c(O)c2ccccc21 |  | inconclusive: 7.94 µM [falling, partial curve] |
| N#CC1=C(N)OC2=C(CC/C2=C\c2ccccc2)C1c1ccccc1 (stereo unspecified) |  | inconclusive: 35.5 µM [falling, single point] |
| Cc1occc1C(=O)NNC(=S)Nc1ccccc1C(F)(F)F |  | inconclusive: 23.1 µM [falling, partial curve] |
| O=C(Nc1cccc(F)c1)/C(=C/c1ccco1)NC(=O)c1ccco1 | inconclusive: -1.68% |  |
| COc1ccc(C2C(C(C)=O)=C(O)C(=O)N2c2nccs2)c(OC)c1 (stereo unspecified) |  | inconclusive: 31.6 µM [rising, partial curve, poor fit] |
| CCCCCNC(=O)c1ccc2c(=O)n(CCCOCC)c(=S)[nH]c2c1 |  | inconclusive: 25.1 µM [falling, single point] |
| COC(=O)C1=CN(C2CC2)C=C(C(=O)OC)C1c1ccccc1OC | inconclusive: -1.03% |  |
| Clc1ccccc1-c1nnc2sc(-c3ccncc3)nn12 |  | inconclusive: 29.1 µM [falling, single point] |
| Cc1ccc2cc(CN(CC3CCCO3)C(=S)Nc3ccccc3)c(=O)[nH]c2c1 (stereo unspecified) |  | inconclusive: 31.6 µM [rising, single point] |
| COc1ccc2oc(=O)c(C(=O)Nc3ccccc3C)cc2c1 |  | inconclusive: 11.2 µM [falling, partial curve] |
| CC1(C)CC(=O)C=C(Nc2ccc(C(=O)O)c(O)c2)C1 | inactive: 7.77% |  |
| Cc1ccc(S(=O)(=O)Nc2nc3ccccc3nc2NCc2ccco2)cc1 |  | inconclusive: 4.61 µM [falling, full curve] |
| COc1cc(/C=C/C(=O)c2c(O)cc(C)oc2=O)cc(OC)c1O |  | inconclusive: 2.06 µM [falling, partial curve, poor fit] |
| Cc1[nH]c2ccccc2c1SCc1nnc(SCc2ccc(Cl)cc2)n1C | inconclusive: 14.3% |  |
| O=C(OCC(=O)N1CCN(C(=O)c2ccco2)CC1)c1cc(-c2cccc(Br)c2)nc2ccccc12 | inconclusive: -20.9% |  |

Some values from the results shown:
activity change, negative = inhibition, CCOC(=O)c1ccc(NC(=O)c2ccco2)cc1 reads inactive: -3.86%
activity change, negative = inhibition, COC(=O)C1=CN(C2CC2)C=C(C(=O)OC)C1c1ccccc1OC reads inconclusive: -1.03%
Potency, Cn1c(=O)c(C(=O)Nc2ccccc2S(N)(=O)=O)c(O)c2ccccc21 reads inconclusive: 7.94 µM [falling, partial curve]
Potency, N#CC1=C(N)OC2=C(CC/C2=C\c2ccccc2)C1c1ccccc1 (stereo unspecified) reads inconclusive: 35.5 µM [falling, single point]

(continued)

| Compound | activity change, negative = inhibition | Potency |
| --- | --- | --- |
| CCNC(=O)N1c2ccc(OCC)cc2C(C)=CC1(C)C |  | inconclusive: 35.5 µM [falling, single point] |
| Cc1ccc(C2NC(=O)NC3=C2CCc2ccccc23)cc1 (stereo unspecified) | inconclusive: 5.01% |  |
| O=C(Nc1cc(Cl)cc(Cl)c1)C1CC(=O)N(C2CCCC2)C1 (stereo unspecified) | inconclusive: -0.568% |  |
| COc1ccccc1C(=O)Nc1ccc2c(c1)nc(CN1CCCCC1)n2C | inconclusive: -14.5% |  |
| C=CC[C@@H](CC(=O)N[C@H](CO)Cc1ccccc1)C(=O)N[C@@H](COC(=O)[C@@H](CC=C)Cc1ccc(F)cc1)Cc1c[nH]c2ccccc12 | inconclusive: -5.26% |  |
| NC(=O)C1CCN(C(=O)c2ccccc2SCC(=O)NCC2CCCCC2)CC1 | inactive: -0.619% |  |
| Cc1cccc(CC(=O)N2CCC(N3CCC(C(=O)N4CCOCC4)CC3)CC2)c1 |  | inconclusive: 14.1 µM [rising, single point] |
| Fc1ccccc1-n1cc(-c2ccccc2)[nH]c1=S | inactive: 7.46% |  |
| CCc1ccc2nc(N(CCN(C)C)C(=O)/C=C/c3cccs3)sc2c1 |  | inconclusive: 22.4 µM [falling, single point] |
| O=S(=O)(CCOc1ccccc1)c1nc2ccccc2[nH]1 | inconclusive: -18.5% |  |
| O=C(NCCCNc1ccc(C(F)(F)F)cc1[N+](=O)[O-])c1ccc(F)cc1 | inconclusive: 4.24% |  |
| Cc1ccc(/C=N/N2CCN(c3ccccn3)CC2)cc1 |  | inconclusive: 7.94 µM [rising, partial curve, poor fit] |
| C/C(=N\NC(=O)c1ccncc1)c1cc2ccccc2o1 | inactive: -5.99% |  |
| O=C(COc1ccc(Br)cc1Cl)N1CCN(c2ncccn2)CC1 | inconclusive: 6.07% |  |
| O=C(Cc1csc(NC(=O)Nc2cccc(Cl)c2)n1)NCc1ccccn1 | inconclusive: 6.28% |  |
| OC(CNC1Cc2ccccc2C1)COc1ccc(Cl)cc1 (stereo unspecified) | inconclusive: 7.44% |  |
| O=C(Nc1nnc(CC2=CCCCC2)s1)c1cccs1 | inactive: 2.34% |  |
| O=C(O)/C=C/C(=O)NNC(=O)c1ccc(Cl)cc1Cl | inconclusive: -0.683% |  |
| CCCCN(Cc1cc2cc(OC)ccc2[nH]c1=O)C(=O)c1ccccn1 | inactive: 1.58% |  |
| Cc1cc(C)n2nc(C(=O)Nc3ccc(S(=O)(=O)N(C)C)cc3)nc2n1 | inactive: 29% |  |
| COc1ccc(N2CC(NC(=O)N3CCN(C(=O)c4ccco4)CC3)CC2=O)cc1OC (stereo unspecified) | inconclusive: 5.32% |  |
| Cc1cc(C)nc(NC(=O)c2ccc(OC(C)C)cc2)n1 | inconclusive: -10% |  |
| COc1cccc(N2CC34C=CC(O3)C(C(=O)O)C4C2=O)c1 (stereo unspecified) | inconclusive: 0.367% |  |
| Oc1cccc2c(-c3nn[nH]n3)ccnc12 | inconclusive: 2.47% |  |
| COc1ccc2ccccc2c1-c1csc(N)n1 | inconclusive: 0.173% |  |
